Assay results from article PMC12370185.
Some of the results follow. For part of these data: At the low end of the ranking the order means little.

How the values were obtained:
Details in all cases: 10 mM Tris-Cl pH 7.5, 50 mM NaCl, 1 mM DTT, 0.25 mg/ml BSA, 2 mM MgCl2, 0.025% Nonidet P-40, 5% glycerol; 28 nM nucleosome library; 10 min on ice then 30 min …; high values mean tight binding; double strand, one strand shown
KLF4 + histone octamer = test: EMSA with sequencing
OCT4 + histone octamer = test: EMSA with sequencing
[1] = tested on: c-MYC + MAX + histone octamer; test: EMSA with sequencing
SOX2 + histone octamer [2] = test: Pioneer-seq (competitive nucleosome EMSA with sequencing)
SOX2 + histone octamer [3] = test: EMSA with sequencing
[4] = tested on: c-MYC + MAX + histone octamer; test: Pioneer-seq (competitive nucleosome EMSA with sequencing)

Sequence | binding signal (log2 relative supershift) (KLF4 + histone octamer) | binding signal (log2 relative supershift) (OCT4 + histone octamer) | binding signal (log2 relative supershift) [1] | binding signal (log2 relative supershift) (SOX2 + histone octamer [2]) | binding signal (log2 relative supershift) (SOX2 + histone octamer [3]) | binding signal (log2 relative supershift) [4]
GATGGACCCTATACGCGGCTGTAATTTACACAGGAAAGTCAACTTGAAATTCCATCAGCAAAATCAGCAGAACAATACTCATTTATACATTCAATACACAAGGACATACTGACACCCACCCTGTGCCACGTATTGAGCCACCAGACCTAACTATGGTTTTAAAAATATTACTCTGAATTCCACATGGAACAGATGGGAAAGGTAGGCACATGCCAGTCGGATAGTGTTCC | 0.998 | 0.382 | 0.698 | -0.112 | – | –
GATGGACCCTATACGCGGCTAATTATTCAAGAGCGGGGTGAAAGGAACGGAGTCTAGACTGAGGTCCAGCGGGCAAGTTCCGACAGGCTCCAGGGCCTTCTTTCCTGCCCTGCATCACCAGTGCAGTCAAAGGGCTCTGCATGGCCTTGAGACAAATTCTGTACAATGAGTTCAGCTGGGCGTGGCAGCAATAGCTTTAAACAACCTTTCTGCCAGTCGGATAGTGTTCC | 2.6 | 1.58 | – | – | 0.627 | -0.184
GATGGACCCTATACGCGGCTGCAATCACAAAATTATAGAAAGGGAGGGCAGATGAGTGGTTGCCCCTGGTTAAAGAGTGGGTGGGGCAGGGAGGAAGTAGGTCTCGCTGTAAAAGAGCAAAGTGAGAAATGCTTCACCATATCAATGTCAGCATCCTTGGGCCGATATTGTACTCTAATTTTGCAAGATGTTATCATTGGGAGAAACTGGTGCCAGTCGGATAGTGTTCC | 1.85 | 0.337 | – | – | 0.817 | -0.0927
GATGGACCCTATACGCGGCAAGTTGTTGGGAGGCTTCACTACCGTTCCTCTGAGTGGCTGCTGCGGCCTCCCCTCCCCCTGCGCCGTCGCGGGGAGCGCGCATAAGGCGCGCACTCGGGCTCGCCGGGACTCGCGCTCTCCCGGGACTGGCTCCCCTCTCTGCAAGCCGGGACTTGCCGCCGGTGTCCCTGAGGGCTCGCAGCTGTAACTTGCCAGTCGGATAGTGTTCC | 0.72 | 0.437 | 0.017 | -0.931 | – | –
GATGGACCCTATACGCGGCAAATAATGGATGCAGGAATTCTGTATTCCATTCATATTCACTTGCTTTCAGCAGGATGAAGCACTTGAAGGGAAGGCGGTGCATCTCTCCTCTCGCTTTCCACCCACCTTTATCCTGGAAATTCAGACTGCCCTGTTGCTATTCACATGAAGCCTCAGTACAAGCCTTGCTCATAGCAAAAGAAGGCACAGTGCCAGTCGGATAGTGTTCC | 0.851 | 0.44 | – | – | 1.3 | -0.178
GATGGACCCTATACGCGGCTCATTTAAACATTCAACAACAGGAATACCACTGAAATAAAGGCCAAACATAAAAGGGTGCTTCTCGGTCTTCCACCATAGGAGTCCCTCTTGTGGCCTCTGGGAGCACCAGAATCCCTATGAAACAACTGTATTTATTGTATCAGGATGAGAATGAGAAGTGCCTCAGTCAAAGGCTGAGTGACGAATGGGTGCCAGTCGGATAGTGTTCC | 1.1 | 0.183 | – | – | 1.28 | -0.298
GATGGACCCTATACGCGGCCCTTATTCATGCAACATCCCTAAACAAAAGGATTTACAAAAAAAAGCCACTAAGGCATAAGCTCCATGAGGGGAGGGGTCTGTGTTTATTTCTTGCTATATCCCAGGCACACAGCAGTGCTTATTGCCTGGGAGGCAAGCAATAAATATTTGCTGAATAAATTGCTTAGTATCAGATGGACTAGCTTTTGATGCCAGTCGGATAGTGTTCC | 1.2 | 0.334 | – | – | 1.52 | -0.458
GATGGACCCTATACGCGGCAGGAACTGCACTCTATCTGGTATTTAAATTCCAGGTAAGTTAGGACTGATGCCTGGTGTAGAATGCTCAAGTGTGGCCCAGATCAGTGTGGCAGTGGTGTACATCAGTTGATGTCAAAAGATGAGTTATACCCCTGGACTTCATAAGCATCAGAAAGCTCTTCTCCCTTTTGTTACATGGAGGGCTATGATTGCCAGTCGGATAGTGTTCC | 0.43 | 0.0779 | – | – | 1.54 | -0.433
GATGGACCCTATACGCGGCCTGACCTTGGGGCATGTGCAGTGTGGACTGTGTGTGCGTGTGCATACGCACATACATTTGTACGTTTGTGGGATACTGGTGGGTGCACACGCTTTGTATGTGTGGACGTACACGTGTCTGTGTGTGGGGTGAGTATGCACGTGTGTTTACACATATGGGGTTTGGGTGTGTGCGTGTTCATGCATATGATGTGCCAGTCGGATAGTGTTCC | 2.05 | 0.365 | 1.23 | -0.289 | – | –
GATGGACCCTATACGCGGCACCCTCTAGTGTTGGGGACTATAAATCCACACCCAAGAGAGGGCCAGTTCCTGACTTAATTGGAGGGCTAAACTCATAGCAGTGGGCAGCAACCAGCATTACAATACAGTCCTGTGCTGCTTAACAATGGAGAGTTCTGAAAAGGGCATTGTTAGGTGATTTCATTGTTGCGTGAATATCATAGAGTGTACTGCCAGTCGGATAGTGTTCC | 2.23 | 0.0246 | – | – | 0.964 | -0.332
GATGGACCCTATACGCGGCTATGAACTTTTCTCTGTTATGGTTCATTCTGGGAGCGCTGCTGGTGGTCATTATTATGCATGTATAAAGTCATTCAGTGATGAGCAGTGGTACAGCTTCAATGATCAACATGTCAGCAGGGTAAGGAGGTGTCCTTTAAGATTATTACTCTGAAAGGTGGGAGTAAGGATGTTTCTAAACAACAGTAAAGTTGCCAGTCGGATAGTGTTCC | 1.57 | 0.274 | – | – | 0.682 | -0.0041
GATGGACCCTATACGCGGCTAAGTAACTTGTCCAAGTTGTTCACACAGTGAAGGGAGGGGCCAAGATATGATGGCTGGGAGTCTAATTGCAGTTCCCTGAGCCATGTGCCTTTCTCTTCACTGAGGACTGCCCCATTCTTGAGTGCCAAACGTCACTAGTAACAGGGTGTGCCTAGATAATTTATGATCCAAACTGAGTCAGTTTGGAAATGCCAGTCGGATAGTGTTCC | 2.5 | 0.266 | – | – | 0.311 | -0.0705
GATGGACCCTATACGCGGCATTTACACATTTCATTTCGTGACAGGAAATAACACTGTCAGCAGCACAGTTGCTCACGGCATGTGCTGCAGGGGAGCTGACGCACGGAGGGTGGAAAGGGTGGAGGTGGGACAACGGGTGTTTGTGCCAGCATGTCATATACCGTCCTGACCTGCTGCATGCTCTTCCTTGCCCCGGGGCAGGTCTGGCAGTGCCAGTCGGATAGTGTTCC | 1.22 | 0.892 | 0.878 | -0.699 | – | –
GATGGACCCTATACGCGGCCCCTTAGCTCACAACATTGACAAACATTAACTCAAAATGGATCACAGATCTAAATACACTCACACTTCCTCCCATCCCCAATCATGCACTGCATGTGTTGCAAAACAATGCTGGTCTATGATGGATAGCATATGTGACTGTGGTCCCATAACATTAAAATGGAGCTGAAAAATTCCTGCCACCTAGTGACGTGCCAGTCGGATAGTGTTCC | 0.797 | 0.268 | – | – | 0.303 | -0.0204
GATGGACCCTATACGCGGCCCCTGCCCATCCCTAACCTCTGGCAACCACTCATCTGTCTATTCCCCCATTGTTAGGATTTTGTCAATTCAAGAATGTTATGTAAATGGAGCCACCCAGTATGCACCCTTTTTGCATTGACTTTATCCCCTCAGCATGATTCTCTGGAGGTGCATCCGCATTGTGGTGCTGATAGTGACTACTGAGTAGTATGCCAGTCGGATAGTGTTCC | 2.27 | 0.352 | 0.995 | – | 1.4 | –
GATGGACCCTATACGCGGCTAAAACTCTAAAAAGTATAGGGCCGTTATGGGAATAAACAAAATAACATAGCACTTTTGCCTGGCACATAAAAATGTTCAGAAGTGTTTGCATTATCATGAGAACCCTCCATACATAAACACGGACACACTGTGCTCACCTACTAATAGCCATTTATCACGTATTTCCTAAGCACTGGGTGGGACATGGTGTGCCAGTCGGATAGTGTTCC | 1.96 | 0.296 | – | – | 0.357 | -0.0961
GATGGACCCTATACGCGGCAATGACTATGGTAAATTCCATTCTCAACCACACATTAACTCAGAGAATTCTTGAGCTACACAGTGACAGACTGAGCTCAAGGAGAAAGACAGGCATTCTGAGTTTCAGACTACGGAGCCATTTGGAGGTGACATGTACAGAACAATGCACAGCTTTGAGATTTTATATTGGTCCTTCCCTGCCCAATGTCATGCCAGTCGGATAGTGTTCC | 1.97 | 0.136 | – | – | 1.24 | -0.163
GATGGACCCTATACGCGGCAGAGTCAAAAACACTTCCAAATAAGGAAAGAGGAATAAGCTATGACCTAATGCTTGCTTGGACATGTTCAGGCATGCTGGGACAAATATCTAGGCTAAAATGTGGGAGCTAAGAGCACGGAGTGTATTGATTTCTTAATTATGGCTAGCAGATATTTAAGAATATTAGCACAGATCTTTGAGTAAATTTTGTGCCAGTCGGATAGTGTTCC | 0.00105 | 0.278 | – | – | 0.25 | -0.419
GATGGACCCTATACGCGGCAAACAGACAGGGGGCCAAAACCAAGGCTTCTCCTCCCCAAGCCGACACCCCACACTTCCTACATGTGGTGGCTGCCCACGGGCTGGAAGACAGTGCCTCTCCCATGACCCCTCAGTGCATCACCCCACCCATCTGAGCAACAGGTTTCACCCAGAAGCAGCAAAAAGCTACGGCACTTTTGACATTTAATATGCCAGTCGGATAGTGTTCC | 1.76 | 0.43 | – | – | 0.209 | -0.145
GATGGACCCTATACGCGGCTTTGTGATCTTGAGGAGGATAATAATGCATTCAATGATGAAACATAAGGAGGCAGCCTGAGAGGCGGATTAAAGGGAAGGGCTTCGAATGAGAATGCTACACACAAGCCCAAATCTGCTACTTAGCATATGTTTGTGGGCAAGTTACTGTTCCTCTCTGCTATTACCCTTTATCCCATGCAAAATTGAGATTGCCAGTCGGATAGTGTTCC | 0.9 | 0.609 | – | – | 1.41 | -0.28
GATGGACCCTATACGCGGCATTCTGGCATTGTTCCCCCACTTTCTTTCTTTCTAGTGATGTTCCCAGGATTCTGTTGTCAAGCATCTCCTCACCCCGCCCCTGTGAATACTTTCCTGCTTTGAAATGCAATGTTTATTACATTGTTTGGGTGTTGACTCTCCTCAAAGCCAATAGAATATGGGATTCATTAGGAAGATGATAAAACTGTGTGCCAGTCGGATAGTGTTCC | 1.35 | 0.231 | – | – | 1.77 | -0.102

An excerpt of these results, as a markdown table.

| Sequence | binding signal (log2 relative supershift) (KLF4 + histone octamer) | binding signal (log2 relative supershift) (OCT4 + histone octamer) | binding signal (log2 relative supershift) [1] | binding signal (log2 relative supershift) (SOX2 + histone octamer [2]) | binding signal (log2 relative supershift) (SOX2 + histone octamer [3]) | binding signal (log2 relative supershift) [4] |
| --- | --- | --- | --- | --- | --- | --- |
| GATGGACCCTATACGCGGCTGTAATTTACACAGGAAAGTCAACTTGAAATTCCATCAGCAAAATCAGCAGAACAATACTCATTTATACATTCAATACACAAGGACATACTGACACCCACCCTGTGCCACGTATTGAGCCACCAGACCTAACTATGGTTTTAAAAATATTACTCTGAATTCCACATGGAACAGATGGGAAAGGTAGGCACATGCCAGTCGGATAGTGTTCC | 0.998 | 0.382 | 0.698 | -0.112 | – | – |
| GATGGACCCTATACGCGGCCTGACCTTGGGGCATGTGCAGTGTGGACTGTGTGTGCGTGTGCATACGCACATACATTTGTACGTTTGTGGGATACTGGTGGGTGCACACGCTTTGTATGTGTGGACGTACACGTGTCTGTGTGTGGGGTGAGTATGCACGTGTGTTTACACATATGGGGTTTGGGTGTGTGCGTGTTCATGCATATGATGTGCCAGTCGGATAGTGTTCC | 2.05 | 0.365 | 1.23 | -0.289 | – | – |
